Results published in US5750531A, “Pyrimidine derivatives and processes for the preparation thereof” (Yuhan Corporation, priority 1994, dated 1998).

System: proton pump(H^+ /K^+ ATPase)
Assay: Inhibition of proton pump(H^+ /K^+ ATPase) activity
Format: biochemical
Conditions: IC50 omeprazole / IC50 test compound
Experimental: Test 1: Inhibition of proton pump(H^+ /K^+ ATPase) activity
A proton pump enzyme source was prepared by the same method as in Experiment 1-1 of WO 94/14795. Further, the inhibitory effect of proton pump activity was measured by the same method as in Experiment 1-2 of WO 94/14795.
Namely, the proton pump activity stimulated by Mg^++ was used as a negative comparative group, and the activity stimulated by Mg^++ and K^+ was used as a positive comparative group. The comparative compound was omeprazole.
Test tubes were divided into 4 groups: Group 1 as negative comparative group(n=3), Group 2 as positive comparative group(n=3), Group 3(n=5×2) to be administered with the compound of the present invention and Group 4(n=5×2) to be administered with the comparative compound.
The inhibitory effects of Groups 3 and 4 on proton pump activity were measured by employing the compound prepared in Example and omeperazole, respectively, each of which was dissolved in dimethylsulfoxide at 5 different concentrations.
To each of Groups 1, 2, 3 and 4 were added 100 μl of magnesium chloride(40 mM) dissolved in 40 mM Tris-HCl buffer(pH 6.0) and 100μ of the enzyme source. Then, 50μ of potassium chloride(50 mM) and 50 μl of ammonium chloride(6 mM) dissolved in 40 mM Tris-HCl buffer(pH 6.0) were added to all groups except for Group 1.
10 μl of dimethylsulfoxide was added to each of Groups 1 and 2; and to Group 3 was added 10 μl of the solution in which the compound prepared in Example was dissolved in dimethylsulfoxide at 5 different concentrations(n=5×2). To Group 4, 10 μl of the solution prepared by dissolving omeprazole in dimethylsulfoxide at 5 different concentrations(37.6, 21.4, 12.2, 7.0 and 4.0 μM) was added(n=5×2). 40 mM Tris-HCl buffer(pH=6.0) was added thereto so as to make the total volume 400 μl.
Thereafter, the test tubes of each Group were placed at 37° C. for 30 minutes for the preincubation. 100 μl of ATP solution (6.6 mM) was added until the reaction volume became 500 μl. After the reaction was carried out at 37° C. for 30 minutes, 25% cold trichloroacetic acid was added to terminate the enzyme reaction. The released inorganic phosphate was measured by an automatic analyzer(Express 550, Corning).
The difference between Group 1 and Group 2 represents the proton pump activity activated by K^+ only. The inhibition percentages of Groups 3 and 4 were calculated from Litchfield-wilcoxon equation[see, e.g., J. pharmacol. Exp. Ther., 96, 99(1949)]. The concentrations of the test compounds which inhibit 50% of the proton pump activity are represented as IC50 in Table 1.

SMILES	Effect ratio
Cc1nc(N(C)c2ccccc2)nc(N2CCc3ccccc3C2C)c1C.Cl (stereo not shown) [Example 18, 5,6-dimethyl-2-(N-methylphenylamino)-4-(1-methyl-1,2,3,4-tetrahydroisoquinolin-2-yl)pyrimidine hydrochloride]	2.69
Cc1nc(N(C)c2ccccc2)nc(N2CCc3ccccc3[C@H]2C)c1C.Cl [Example 19, (R)-5,6-Dimethyl-2-(N-methylphenylamino)-4-(1-methyl-1,2,3,4-tetrahydroisoquinolin-2-yl)pyrimidine hydrochloride]	2.92
Cc1nc(N(C)c2ccccc2)nc(N2CCc3ccccc3[C@@H]2C)c1C.Cl [Example 20, (S)-5,6-dimethyl-2-(N-methylphenylamino)-4-(1-methyl-1,2,3,4-tetrahydroisoquinolin-2-yl)pyrimidine hydrochloride]	2.59
Cc1nc(Nc2ccccc2)nc(N2CCc3ccccc3C2C)c1C.Cl (stereo not shown) [Example 21, 5,6-dimethyl-2-(phenylamino)-4-(1-methyl-1,2,3,4-tetrahydroisoquinolin-2-yl)pyrimidine hydrochloride]	7.33
Cc1nc(Nc2ccccc2)nc(N2CCc3ccccc3[C@H]2C)c1C [Example 22, (R)-5,6-Dimethyl-2-(4-phenylamino)-4-(1-methyl-1,2,3,4-tetrahydroisoquinolin-2-yl)pyrimidine hydrochloride]	7.26
Cc1nc(Nc2ccccc2)nc(N2CCc3ccccc3[C@@H]2C)c1C [Example 23, hydrochloride]	5.45
Cc1ccccc1Nc1nc(C)c(C)c(N2CCc3ccccc3C2C)n1.Cl (stereo not shown) [Example 24, 5,6-Dimethyl-2-(2-methylphenylamino)-4-(1-methyl-1,2,3,4-tetrahydroisoquinolin-2-yl)pyrimidine hydrochloride]	19.33
Cc1ccc(Nc2nc(C)c(C)c(N3CCc4ccccc4C3C)n2)cc1.Cl (stereo not shown) [Example 25, 5,6-dimethyl-2-(4-methylphenylamino)-4-(1-methyl-1,2,3,4-tetrahydroisoquinolin-2-yl)pyrimidine hydrochloride]	8.10
CCc1nc(Nc2ccc(F)cc2C)nc(N2CCc3ccccc3C2C)c1C.Cl (stereo not shown) [Example 26, 5-methyl-6-ethyl-2-(2-methyl-4-fluorophenylamino)-4-(1-methyl-1,2,3,4-tetrahydroisoquinolin-2-yl)pyrimidine hydrochloride]	15.62
CCc1nc(Nc2ccc(F)cc2)nc(N2CCc3ccccc3C2C)c1C.Cl (stereo not shown) [Example 27, 5-methyl-6-ethyl-2-(4-fluorophenylamino)-4-(1-methyl-1,2,3,4-tetrahydroisoquinolin-2-yl)pyrimidine hydrochloride]	6.26
CCc1nc(N(C)c2ccccc2)nc(N2CCc3ccccc3C2C)c1C.Cl (stereo not shown) [Example 28, 5-methyl-6-ethyl-2-(N-methylphenylamino)-4-(1-methyl-1,2,3,4-tetrahydroisoquinolin-2-yl)pyrimidine hydrochloride]	< 0.95
Cc1cc(F)ccc1Nc1nc2c(c(N3CCc4ccccc4C3C)n1)CCC2 (stereo not shown) [Example 29, hydrochloride]	17.49
CC1c2ccccc2CCN1c1nc(Nc2ccc(F)cc2)nc2c1CCC2 (stereo not shown) [Example 30, hydrochloride]	~ 1.69
CC1c2ccccc2CCN1c1nc(N(C)c2ccccc2)nc2c1CCC2 (stereo not shown) [Example 31, 2-(N-methylphenylamino)-4-(1-methyl-1,2,3,4-tetrahydroisoquinolin-2-yl)cyclopenta[d]pyrimidine hydrochloride]	~ 0.51
Cc1cc(F)ccc1Nc1nc2c(c(N3CCc4ccccc4C3C)n1)CCCC2.Cl (stereo not shown) [Example 32, 2-(2-methyl-4-fluorophenylamino)-4-(1-methyl-1,2,3,4-tetrahydroisoquinolin-2-yl)-5,6,7,8-tetrahydroquinazoline hydrochloride]	8.40
Cc1cc(N2CCc3ccccc3C2)nc(Nc2ccc(F)cc2C)n1.Cl [Example 34, 6-methyl-2-(2-methyl-4-fluorophenylamino)-4-(1,2,3,4-tetrahydroisoquinolin-2-yl)pyrimidine hydrochloride]	4.02
Cc1cc(N2CCc3ccccc3C2)nc(Nc2ccc(F)cc2)n1.Cl [Example 35, 6-methyl-2-(4-fluorophenylamino)-4-(1,2,3,4-tetrahydroisoquinoline-2-yl)pyrimidine hydrochloride]	4.02
CCc1cc(N2CCc3ccccc3C2)nc(Nc2ccc(F)cc2C)n1.Cl [Example 37, 6-ethyl-2-(2-methyl-4-fluorophenylamino)-4-(1,2,3,4-tetrahydroisoquinolin-2-yl)pyrimidine hydrochloride]	9.85
CCc1cc(N2CCc3ccccc3C2)nc(Nc2ccc(F)cc2)n1.Cl [Example 38, 6-ethyl-2-(4-fluorophenylamino)-4-(1,2,3,4-tetrahydroisoquinolin-2-yl)pyrimidine hydrochloride]	3.24
CCc1cc(N2CCc3ccccc3C2)nc(N(C)c2ccccc2)n1.Cl [Example 39, 6-ethyl-2-(N-methylphenylamino)-4-(1,2,3,4-tetrahydroisoquinolin-2-yl)pyrimidine hydrochloride]	< 0.95
CCc1cc(N2CCc3ccccc3C2)nc(Nc2ccccc2C)n1.Cl [Example 40, 6-ethyl-2-(2-methylphenylamino)-4-(1,2,3,4-tetrahydroisoquinolin-2-yl)pyrimidine hydrochloride]	9.17
Cc1cc(F)ccc1Nc1nc(C)c(C)c(N2CCc3ccccc3C2)n1.Cl [Example 41, 5,6-dimethyl-2-(2-methyl-4-fluorophenylamino)-4-(1,2,3,4-tetrahydroisoquinolin-2-yl)pyrimidine hydrochloride]	18.10
Cc1nc(Nc2ccc(F)cc2)nc(N2CCc3ccccc3C2)c1C.Cl [Example 42, 5,6-dimethyl-2-(4-fluorophenylamino)-4-(1,2,3,4-tetrahydroisoquinolin-2-yl)pyrimidine hydrochloride]	4.95
Cc1nc(N(C)c2ccccc2)nc(N2CCc3ccccc3C2)c1C.Cl [Example 43, 5,6-dimethyl-2-(N-methylphenylamino)-4-(1,2,3,4-tetrahydroisoquinolin-2-yl)pyrimidine hydrochloride]	14.44
CCc1nc(Nc2ccc(F)cc2C)nc(N2CCc3ccccc3C2)c1C.Cl [Example 44, 5-methyl-6-ethyl-2-(2-methyl-4-fluorophenylamino)-4-(1,2,3,4-tetrahydroisoquinolin-2-yl)pyrimidine hydrochloride]	~ 1.08
CCc1nc(Nc2ccc(F)cc2)nc(N2CCc3ccccc3C2)c1C.Cl [Example 45, 5-methyl-6-ethyl-2-(4-fluorophenylamino)-4-(1,2,3,4-tetrahydroisoquinolin-2-yl)pyrimidine hydrochloride]	4.12
CCc1nc(N(C)c2ccccc2)nc(N2CCc3ccccc3C2)c1C.Cl [Example 46, 5-methyl-6-ethyl-2-(N-methylphenylamino)-4-(1,2,3,4-tetrahydroisoquinolin-2-yl)pyrimidine hydrochloride]	~ 0.60
Cc1cc(F)ccc1Nc1nc2c(c(N3CCc4ccccc4C3)n1)CCC2 [Example 47, 2-(2-methyl-4-fluorophenylamino)-4-(1,2,3,4-tetrahydroisoquinolin-2-yl)cyclopenta[d]pyrimidine hydrochloride]	~ 1.54

Counter-ions that a name gives are not always drawn.
